From PubChem BioAssay AID330 (DTP/NCI, 2004)
The list shows only some results of the screen, not a fair sample: it gathers tests that were run many times, whatever their T/C, doses with no T/C, and many T/C values between a quarter and a half above the control. Further doses and runs are listed elsewhere. T/C is the treated group as % of the vehicle group. Some doses have a count of surviving animals in place of a T/C: the source files T/C as zero there, which appears to mark a toxic dose or a test without result, not a measured value. Some survivor counts are full or nearly so, which does not show that the dose was tolerated: survival well below the control is almost never listed, so the zero probably covers shortened survival too. Counts of survivors are from the toxicity check (mostly the fifth day) where no day follows; animals may have died later. Schedule codes are those of the source, taken here to give the interval after Q, in days (D) or hours (H), and the number of doses after X. Some entries were tested several times; their values stand side by side, smallest first. Where survival is the endpoint, this PubChem deposit counts one and a half times the control or more as active, and values a quarter to a half above the control carry no call in these data; other NCI protocols may use other cut-offs. Some T/C values carry the count of animals alive at the toxicity check (mostly the fifth day); without a count, all were alive then.

System: P388 leukemia ip, CD2F1 mice, survival T/C
Experiment: NCI In Vivo Anticancer Drug Screen. Data for tumor model P388 Leukemia (intraperitoneal) in CD2F1 (CDF1) mice
Details: T/C endpoint: median survival time, higher T/C = longer survival
[1] = dose: 200.0 mg/kg/injection, schedule: Q01DX009 (ip), vehicle: other
[2] = dose: 200.0 mg/kg/injection, schedule: Q01DX009 (ip), vehicle: saline with Tween-80
[3] = dose: 200.0 mg/kg/injection, schedule: Q01DX005 (ip), vehicle: Klucel (hydroxypropylcellulose) (HPC)
[4] = dose: 50.0 mg/kg/injection, schedule: Q01DX009 (ip), vehicle: saline with Tween-80
[5] = dose: 240.0 mg/kg/injection, schedule: Q01DX005 (ip), vehicle: saline with Tween-80
[6] = dose: 60.0 mg/kg/injection, schedule: Q01DX005 (ip), vehicle: Klucel (hydroxypropylcellulose) (HPC)
[7] = dose: 10.0 mg/kg/injection, schedule: Q01DX009 (ip), vehicle: saline with Tween-80
[8] = dose: 100.0 mg/kg/injection, schedule: Q01DX005 (ip), vehicle: Klucel (hydroxypropylcellulose) (HPC)
[9] = dose: 200.0 mg/kg/injection, schedule: Q01DX009 (ip), vehicle: saline
[10] = dose: 400.0 mg/kg/injection, schedule: Q01DX009 (ip), vehicle: Klucel (hydroxypropylcellulose) (HPC)

## COC(=O)/C=N/NS(=O)(=O)c1ccc(C)cc1
[1]
  survivor count: 4 of 6
dose: 400.0 mg/kg/injection, schedule: Q01DX009 (ip), vehicle: other
  survivor count: 0 of 6

## CC[As](CC)SC1CC(OC(=O)c2ccccc2)C(OC(=O)c2ccccc2)C(COC(=O)c2ccccc2)O1 (configuration not stated)
[2]
  survivor count: 0 of 6

## C/C(Cl)=C\C(=O)c1c(C)[nH]n(-c2ccccc2)c1=O
[3]
  survivor count: 0 of 6

## C/C(=N\NC(=S)N1CCCCCC1)c1ccccn1
[4]
  survivor count: 3 of 6
dose: 100.0 mg/kg/injection, schedule: Q01DX009 (ip), vehicle: saline with Tween-80
  survivor count: 3 of 6
[2]
  survivor count: 0 of 6

## CN1NC(c2ccccc2)=C(C#N)C(=O)CC1c1ccc(Cl)cc1 (configuration not stated)
dose: 15.0 mg/kg/injection, schedule: Q01DX005 (ip), vehicle: saline with Tween-80, evaluated on day 20
  T/C: 95, 112, 115 % of control
dose: 15.0 mg/kg/injection, schedule: Q01DX005 (ip), vehicle: saline with Tween-80, evaluated on day 30
  T/C: 180 % of control
dose: 30.0 mg/kg/injection, schedule: Q01DX005 (ip), vehicle: saline with Tween-80
  survivor count: 6 of 6
dose: 60.0 mg/kg/injection, schedule: Q01DX005 (ip), vehicle: saline with Tween-80
  survivor count: 0 of 6 and 1 of 6
dose: 120.0 mg/kg/injection, schedule: Q01DX005 (ip), vehicle: saline with Tween-80
  survivor count: 0 of 6
[5]
  survivor count: 0 of 6

## O=C(CBr)c1cc2c(cc1Br)OCO2
dose: 50.0 mg/kg/injection, schedule: Q01DX001 (ip), vehicle: Klucel (hydroxypropylcellulose) (HPC)
  survivor count: 0 of 6
dose: 100.0 mg/kg/injection, schedule: Q01DX001 (ip), vehicle: Klucel (hydroxypropylcellulose) (HPC)
  survivor count: 0 of 6
dose: 200.0 mg/kg/injection, schedule: Q01DX001 (ip), vehicle: Klucel (hydroxypropylcellulose) (HPC)
  survivor count: 0 of 6

## CC(C)c1oc(=O)cc2c1C(O)C1OC(=O)C3(C)C(O)C4OC4C2(C)C13 (configuration not stated)
[6]
  T/C: 133 % of control [4 of 5 alive]

## Cc1c[nH]c2nc(C)n(-c3ccccc3F)c(=N)c12
[3]
  survivor count: 1 of 6

## CC(C)CC(NC(=O)CF)C(=O)O (configuration not stated)
[7]
  survivor count: 0 of 6

## N#Cn1c2ccccc2c(=N)c2ccccc21
[5]
  survivor count: 0 of 6

## COc1cc2c(c(OC)c1OC)-c1ccc(OC)c(=O)cc1[C@@H](N(C)C(C)=O)CC2
dose: 0.07 mg/kg/injection, schedule: Q01DX009 (ip), vehicle: Klucel (hydroxypropylcellulose) (HPC)
  T/C: 130 % of control
dose: 0.15 mg/kg/injection, schedule: Q01DX009 (ip), vehicle: Klucel (hydroxypropylcellulose) (HPC)
  T/C: 140 % of control
dose: 0.62 mg/kg/injection, schedule: Q01DX009 (ip), vehicle: Klucel (hydroxypropylcellulose) (HPC)
  survivor count: 6 of 6
dose: 1.25 mg/kg/injection, schedule: Q01DX009 (ip), vehicle: Klucel (hydroxypropylcellulose) (HPC)
  survivor count: 4 of 6
dose: 2.5 mg/kg/injection, schedule: Q01DX009 (ip), vehicle: Klucel (hydroxypropylcellulose) (HPC)
  survivor count: 1 of 6
dose: 5.0 mg/kg/injection, schedule: Q01DX009 (ip), vehicle: Klucel (hydroxypropylcellulose) (HPC)
  survivor count: 0 of 6

## CN(C)c1ccc(C(=C2C=CC(=[N+](C)C)C=C2)c2ccc(N(C)C)cc2)cc1 (tested in a mixture with another compound)
dose: 1.25 mg/kg/injection, schedule: Q01DX009 (ip), vehicle: saline with Tween-80
  T/C: 134 % of control
dose: 2.5 mg/kg/injection, schedule: Q01DX009 (ip), vehicle: saline with Tween-80
  T/C: 138 % of control
dose: 5.0 mg/kg/injection, schedule: Q01DX009 (ip), vehicle: saline with Tween-80
  survivor count: 0 of 6 and 6 of 6
[7]
  survivor count: 1 of 6
dose: 20.0 mg/kg/injection, schedule: Q01DX009 (ip), vehicle: saline with Tween-80
  survivor count: 0 of 6
dose: 40.0 mg/kg/injection, schedule: Q01DX009 (ip), vehicle: saline with Tween-80
  survivor count: 0 of 6
dose: 80.0 mg/kg/injection, schedule: Q01DX009 (ip), vehicle: saline with Tween-80
  survivor count: 0 of 6

## COc1ccccc1NC(=O)Oc1ccc(C(C)(CCC(=O)O)c2ccc(OC(=O)Nc3ccccc3OC)cc2)cc1
dose: 200.0 mg/kg/injection, schedule: Q01DX005 (ip), vehicle: saline with Tween-80
  T/C: 127 % of control

## Cc1cc(OCc2nnc3n2S(=O)(=O)c2ccccc2N3C)ccc1Cl
[5]
  survivor count: 6 of 6

## COC(=O)/C=C1/C(=O)N(C)c2ccccc21
dose: 12.5 mg/kg/injection, schedule: Q01DX009 (ip), vehicle: saline with Tween-80
  survivor count: 6 of 6

## Cc1ccc(CNc2cc(C)ccn2)cc1
[1]
  survivor count: 3 of 6

## CCCCN(CCCC)c1ccc(C(=N)c2ccc(N(CCCC)CCCC)cc2)cc1
dose: 50.0 mg/kg/injection, schedule: Q01DX005 (ip), vehicle: Klucel (hydroxypropylcellulose) (HPC)
  survivor count: 1 of 5
[8]
  survivor count: 0 of 5
[3]
  survivor count: 0 of 5

## Cc1nc(=O)oc(NC(C)C)c1Cl
[9]
  T/C: 127 % of control

## COC(=O)/C(C#N)=C/c1cc(OC)c(O)cc1Br
[8]
  survivor count: 6 of 6

## c1ccc(-c2cn3ccccc3n2)cc1
[10]
  survivor count: 1 of 6

## Cc1ccc(C)c([N+](=O)[O-])c1C(=O)O
dose: 400.0 mg/kg/injection, schedule: Q04DX003 (ip), vehicle: saline + alcohol
  survivor count: 5 of 6

## CC(=O)Nn1cnc2c(SCc3ccccc3)ncnc21
dose: 200.0 mg/kg/injection, schedule: Q04DX003 (ip), vehicle: saline with Tween-80
  T/C: 125 % of control
[10]
  survivor count: 3 of 6
dose: 400.0 mg/kg/injection, schedule: Q04DX003 (ip), vehicle: saline with Tween-80
  survivor count: 5 of 6

## Oc1ccccc1C=NCCC[N-]CCCN=Cc1ccccc1O.[Co]
dose: 25.0 mg/kg/injection, schedule: Q01DX009 (ip), vehicle: saline
  T/C: 126 % of control
dose: 50.0 mg/kg/injection, schedule: Q01DX009 (ip), vehicle: saline
  T/C: 133 and 136 % of control
dose: 100.0 mg/kg/injection, schedule: Q01DX009 (ip), vehicle: saline
  T/C: 136 % of control
[9]
  survivor count: 5 of 5

## C=C1CC(NCC(=O)OCC)=C(O)C1=O
[3]
  survivor count: 2 of 6

## Cc1ccc2c(C(=O)O)cc(N)cc2n1
dose: 15.0 mg/kg/injection, schedule: Q01DX005 (ip), vehicle: Klucel (hydroxypropylcellulose) (HPC)
  survivor count: 4 of 6
dose: 30.0 mg/kg/injection, schedule: Q01DX005 (ip), vehicle: Klucel (hydroxypropylcellulose) (HPC)
  survivor count: 1 of 6
[6]
  survivor count: 0 of 6
dose: 120.0 mg/kg/injection, schedule: Q01DX005 (ip), vehicle: Klucel (hydroxypropylcellulose) (HPC)
  survivor count: 0 of 6
dose: 240.0 mg/kg/injection, schedule: Q01DX005 (ip), vehicle: Klucel (hydroxypropylcellulose) (HPC)
  survivor count: 0 of 6

## C=C([Se]c1ccccc1)C(C)(C)C
[2]
  survivor count: 5 of 6

## Cc1cc(C#N)c[n+](C)c1
dose: 240.0 mg/kg/injection, schedule: Q01DX005 (ip), vehicle: saline
  survivor count: 1 of 6

## COc1ccc(OC)c(NC2=C(Cl)C(=O)C(Nc3cc(OC)ccc3OC)=C(Cl)C2=O)c1
[4]
  survivor count: 6 of 6

## COc1cc(NCCN(CC(C)C)C2CCCC2)c2ncccc2c1
dose: 200.0 mg/kg/injection, schedule: Q01DX005 (ip), vehicle: saline
  survivor count: 0 of 5

## COc1ccc(C(CC(=O)O)CC(=O)c2ccc(N(CCCl)CCCl)cc2)cc1 (configuration not stated)
dose: 400.0 mg/kg/injection, schedule: Q01DX001 (ip), vehicle: suspension in saline
  survivor count: 5 of 6

## CC(=O)Nc1ccc(Cl)cc1C(Cl)c1ccccc1 (configuration not stated)
[8]
  survivor count: 3 of 6
[3]
  survivor count: 0 of 6

## C1CC[C@H]2OCN[C@@H]2C1
dose: 100.0 mg/kg/injection, schedule: Q04DX002 (ip), vehicle: Klucel (hydroxypropylcellulose) (HPC)
  T/C: 127 % of control

## O=C1Nc2ccccc2C1NC(=S)Nc1ccc(Cl)cc1 (configuration not stated)
dose: 400.0 mg/kg/injection, schedule: Q01DX001 (ip), vehicle: saline with Tween-80
  survivor count: 6 of 6

## CCCCCCCCOC(=O)c1ccc(O)cc1
[2]
  survivor count: 5 of 6
